This is an account of results in paper PMC7598220.

By UniProt entry, the sequences of proteins in these tests, tags left out.
UniProt Q5TGZ0: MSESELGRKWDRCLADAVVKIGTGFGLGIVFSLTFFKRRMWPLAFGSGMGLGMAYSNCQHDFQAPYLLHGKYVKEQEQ

Test [1] deals with T1, Mic60 (human (endogenous in HEK293)) (UniProt Q16891).
T1 sequence: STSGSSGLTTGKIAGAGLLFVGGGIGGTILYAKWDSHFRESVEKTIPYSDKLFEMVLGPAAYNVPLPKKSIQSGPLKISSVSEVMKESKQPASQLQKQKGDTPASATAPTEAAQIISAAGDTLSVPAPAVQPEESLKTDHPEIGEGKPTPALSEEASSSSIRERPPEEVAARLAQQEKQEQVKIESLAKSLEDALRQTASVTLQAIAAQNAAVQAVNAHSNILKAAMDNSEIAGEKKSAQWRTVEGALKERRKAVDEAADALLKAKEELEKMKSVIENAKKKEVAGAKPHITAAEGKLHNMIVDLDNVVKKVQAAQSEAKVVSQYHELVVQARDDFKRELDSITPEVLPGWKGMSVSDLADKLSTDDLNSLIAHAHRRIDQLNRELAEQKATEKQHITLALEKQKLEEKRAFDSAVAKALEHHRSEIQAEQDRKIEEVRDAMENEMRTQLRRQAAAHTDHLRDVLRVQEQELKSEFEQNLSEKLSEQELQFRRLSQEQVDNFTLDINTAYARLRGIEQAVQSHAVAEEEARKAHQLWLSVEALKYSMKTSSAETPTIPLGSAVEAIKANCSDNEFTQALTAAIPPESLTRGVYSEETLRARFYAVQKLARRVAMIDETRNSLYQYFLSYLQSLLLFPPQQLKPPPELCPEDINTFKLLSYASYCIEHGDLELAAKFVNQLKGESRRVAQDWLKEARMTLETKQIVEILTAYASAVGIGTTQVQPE
The test is described as follows: native gel or EMSA; blue native PAGE of isolated mitochondria from WT and Mic10/Mic60-deficient HEK293 cells, solubilised with 1% digitonin; complexes immunoblotted for TMBIM5, Mic10 and Mic60.

The target in test [2] is Mic10 (human (endogenous in HEK293)) (UniProt Q5TGZ0). The test is described as above.

No constants are given. Whether binding was seen depends on the method and setting.

B1: Transmembrane BAX Inhibitor-1 Motif Containing Protein 5 (TMBIM5) (protein, UniProt Q9H3K2 46-345)
chain: ATKTRIGIRRGRTGQELKEAALEPSMEKIFKIDQMGRWFVAGGAAVGLGALCYYGLGLSNEIGAIEKAVIWPQYVKDRIHSTYMYLAGSIGLTALSAIAISRTPVLMNFMMRGSWVTIGVTFAAMVGAGMLVRSIPYDQSPGPKHLAWLLHSGVMGAVVAPLTILGGPLLIRAAWYTAGIVGGLSTVAMCAPSEKFLNMGAPLGVGLGLVFVSSLGSMFLPPTTVAGATLYSVAMYGGLVLFSMFLLYDTQKVIKRAEVSPMYGVQKYDPINSMLSIYMDTLNIFMRVATMLATGGNRKK
Consider B1, for which the binding entry in test [1] and in test [2] was “no binding” throughout.
